Test results from patent publication US20240150841A1, “TAP63 REGULATED ONCOGENIC LONG NON-CODING RNAS” (H. LEE MOFFITT CANCER CENTER AND RESEARCH INSTITUTE, INC., priority 2021, published 2024).
These are yes or no findings as the source states them, for the method shown. Binding seen in cells or lysates may run through a third protein. Some results given as binding are weak or reduced against the parent protein; the word gives no strength.

Chains of the proteins cited; added tags and fusions are not shown.
UniProt Q9H7D7: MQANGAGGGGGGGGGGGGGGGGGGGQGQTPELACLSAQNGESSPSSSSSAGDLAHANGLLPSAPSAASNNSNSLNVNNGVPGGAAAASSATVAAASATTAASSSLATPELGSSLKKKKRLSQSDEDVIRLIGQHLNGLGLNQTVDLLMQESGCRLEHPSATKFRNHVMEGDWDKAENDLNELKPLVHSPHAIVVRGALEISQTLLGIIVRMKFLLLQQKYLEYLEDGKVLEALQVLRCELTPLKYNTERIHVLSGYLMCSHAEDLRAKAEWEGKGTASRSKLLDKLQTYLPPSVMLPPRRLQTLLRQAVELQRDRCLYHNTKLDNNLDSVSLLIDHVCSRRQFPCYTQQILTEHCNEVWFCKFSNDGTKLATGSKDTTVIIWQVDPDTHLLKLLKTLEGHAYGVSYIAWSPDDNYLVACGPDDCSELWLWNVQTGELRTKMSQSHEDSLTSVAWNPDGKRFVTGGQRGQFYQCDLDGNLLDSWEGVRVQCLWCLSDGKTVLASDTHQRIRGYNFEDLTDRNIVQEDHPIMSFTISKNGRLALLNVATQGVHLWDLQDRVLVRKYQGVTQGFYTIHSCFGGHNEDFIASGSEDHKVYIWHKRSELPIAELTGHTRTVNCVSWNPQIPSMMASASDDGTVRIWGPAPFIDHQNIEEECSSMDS

Tests used:
[1] = target: WDR26 (endogenous) (UniProt Q9H7D7); assay: co-immunoprecipitation of endogenous proteins, western blot (FIG. 11b)
[2] = target: WDR26 (endogenous) (UniProt Q9H7D7); assay: co-immunoprecipitation of endogenous proteins, western blot

binding [1]: binds | binding [2]: binds
B1: NOLC1 (also known as Nopp140) (protein, human, UniProt Q14978 1-699, looked up)
chain: MADAGIRRVVPSDLYPLVLGFLRDNQLSEVANKFAKATGATQQDANASSLLDIYSFWLKSAKVPERKLQANGPVAKKAKKKASSSDSEDSSEEEEEVQGPPAKKAAVPAKRVGLPPGKAAAKASESSSSEESSDDDDEEDQKKQPVQKGVKPQAKAAKAPPKKAKSSDSDSDSSSEDEPPKNQKPKITPVTVKAQTKAPPKPARAAPKIANGKAASSSSSSSSSSSSDDSEEEKAAATPKKTVPKKQVVAKAPVKAATTPTRKSSSSEDSSSDEEEEQKKPMKNKPGPYSSVPPPSAPPPKKSLGTQPPKKAVEKQQPVESSEDSSDESDSSSEEEKKPPTKAVVSKATTKPPPAKKAAESSSDSSDSDSSEDDEAPSKPAGTTKNSSNKPAVTTKSPAVKPAAAPKQPVGGGQKLLTRKADSSSSEEESSSSEEEKTKKMVATTKPKATAKAALSLPAKQAPQGSRDSSSDSDSSSSEEEEEKTSKSAVKKKPQKVAGGAAPSKPASAKKGKAESSNSSSSDDSSEEEEEKLKGKGSPRPQAPKANGTSALTAQNGKAAKNSEEEEEEKKKAAVVVSKSGSLKKRKQNEAAKEAETPQAKKIKLQTPNTFPKRKKGEKRASSPFRRVREEEIEVDSRVADNSFDAKRGAAGDWGERANQVLKFTKGKSFRHEKTKKKRGSYRGGSISVQVNSIKFDSE
